Assay results taken from publication PMC5096713.
Numbering of substitutions follows the chain as printed. Numbers in names are those of the source. These are yes or no findings as the source states them, for the method shown. Binding seen in cells or lysates may run through a third protein. Binding can be weak; no strength is given. Sequences can lack the tags named with a protein. One block for each molecule: values may come before it.

Tests used:
[1] = target: T1, RFP-tagged wild-type Rab5 (Rab5-RFP) (Drosophila) (UniProt Q9V3I2); assay: co-IP; Drosophila S2 cells co-transfected; cell lysates immunoprecipitated by anti-RFP; Western blot
T1 sequence: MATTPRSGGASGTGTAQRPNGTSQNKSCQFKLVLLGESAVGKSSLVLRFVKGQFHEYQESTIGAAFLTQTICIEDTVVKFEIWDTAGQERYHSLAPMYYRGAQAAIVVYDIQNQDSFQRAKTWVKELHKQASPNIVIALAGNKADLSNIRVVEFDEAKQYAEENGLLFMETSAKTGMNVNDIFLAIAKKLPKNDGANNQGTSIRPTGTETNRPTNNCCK

[2] = target: GFP-tagged Thickveins (Tkv-GFP) (Drosophila); assay: co-IP; Drosophila S2 cells co-transfected, lysed three days later in IP lysis buffer (25 mM Tris-HCl pH 7.4, 150 mM NaCl, 1% NP-40, 1 mM EDTA, 5% glycerol); immunoprecipitated by anti-GFP (GFP-Nanotrap A Kit); Western blot
[3] = target: GFP-tagged constitutively active form of Tkv (caTkv-GFP) (Drosophila); assay: as above

binding [1]: binds
Molecule: GFP-tagged Thickveins (Tkv-GFP) (Drosophila) (receptor)

binding [1]: binds
Molecule: GFP-tagged constitutively active form of Tkv (caTkv-GFP) (Drosophila) (receptor)

binding [1]: binds
Molecule: MYC-tagged LRR domain of Scrib (LRR-MYC) (Drosophila) (domain or fragment)

binding [2]: binds
binding [3]: binds
B1: RFP-tagged wild-type Rab5 (Rab5-RFP) (protein, UniProt Q9V3I2 1-219)
chain: T1 sequence

binding [2]: binds
B2: RFP-tagged constitutively active Rab5 (Q88L) (protein, UniProt Q9V3I2 1-219)
chain: T1 sequence with Q88L

binding [2]: binds
B3: RFP-tagged dominant negative Rab5 (S43N) (protein, UniProt Q9V3I2 1-219)
chain: T1 sequence with S43N
